Test results published in patent US20190153086A1.
Results are given in words; binding and its absence hold for the method and conditions named. Some binding calls cover weakened binding; strength is not graded here.

The chains behind the UniProt entries cited, without tags or fusion partners. Where a name states a change or a piece, a line headed by the entry shows the natural chain unless it says otherwise.
UniProt Q9BQB4: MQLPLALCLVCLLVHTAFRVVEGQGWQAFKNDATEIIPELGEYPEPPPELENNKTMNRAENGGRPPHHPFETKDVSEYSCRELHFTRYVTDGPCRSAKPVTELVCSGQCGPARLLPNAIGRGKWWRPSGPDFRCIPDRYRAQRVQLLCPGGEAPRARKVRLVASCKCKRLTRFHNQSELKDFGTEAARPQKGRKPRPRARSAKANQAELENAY

Target: human sclerostin (human) (UniProt Q9BQB4)
Experiment: competition alpha screen binding assay (antibody titrated against sclerostin-LRP6)

B1: 20C3 (antibody, V domains shown)
VH: QVQLQESGPGLVKPSETLSLTCTVSGGSISSYYWSWIRQPPGKGLEWIGYISDSGSTNYNPSLKSRIPISVDTSKNQFSLKLSSVTAADTAVYYCARWQLAHDAFDIWGQGTMVTVSS
VL: QSALTQPASVSGSPGQSITISCTGTSSDVGGYNYVSWYQQHPGKAPKLMIYEVSYRPSGVSNRFSGSKSGSTASLTISGLQPEDEADYYCSSYAISSTLVFGGGTKMTVL
Q: For B1, which binding is on record?
A: binds
